Experiment [1] has as its target T1, full-length GST-Sts1 (S. cerevisiae) (UniProt P38637).
T1 sequence: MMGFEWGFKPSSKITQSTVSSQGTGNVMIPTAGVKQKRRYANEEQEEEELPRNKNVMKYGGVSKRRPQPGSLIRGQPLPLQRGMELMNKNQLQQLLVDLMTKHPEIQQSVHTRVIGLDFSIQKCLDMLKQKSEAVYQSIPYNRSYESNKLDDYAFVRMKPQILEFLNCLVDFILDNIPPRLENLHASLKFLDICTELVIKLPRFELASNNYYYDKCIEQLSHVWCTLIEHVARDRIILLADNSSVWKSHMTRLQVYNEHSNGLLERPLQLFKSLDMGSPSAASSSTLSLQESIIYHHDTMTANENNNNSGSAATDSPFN
The experiment can be described thus: condition: only with four-fold molar excess of 6His-Gsp1 bound to GTP (RanGTP); pull-down; as a2, the pre-formed GST-Sts1/Srp1-6His/Kap95 complex on GSH beads then incubated with four-fold molar excess of 6His-Gsp1GTP (RanGTP), 4 °C, 2 h; what remained on the beads was examined; both purified.

Sequences of proteins named here, by UniProt entry; tags and fusion partners are left off.
UniProt Q02821: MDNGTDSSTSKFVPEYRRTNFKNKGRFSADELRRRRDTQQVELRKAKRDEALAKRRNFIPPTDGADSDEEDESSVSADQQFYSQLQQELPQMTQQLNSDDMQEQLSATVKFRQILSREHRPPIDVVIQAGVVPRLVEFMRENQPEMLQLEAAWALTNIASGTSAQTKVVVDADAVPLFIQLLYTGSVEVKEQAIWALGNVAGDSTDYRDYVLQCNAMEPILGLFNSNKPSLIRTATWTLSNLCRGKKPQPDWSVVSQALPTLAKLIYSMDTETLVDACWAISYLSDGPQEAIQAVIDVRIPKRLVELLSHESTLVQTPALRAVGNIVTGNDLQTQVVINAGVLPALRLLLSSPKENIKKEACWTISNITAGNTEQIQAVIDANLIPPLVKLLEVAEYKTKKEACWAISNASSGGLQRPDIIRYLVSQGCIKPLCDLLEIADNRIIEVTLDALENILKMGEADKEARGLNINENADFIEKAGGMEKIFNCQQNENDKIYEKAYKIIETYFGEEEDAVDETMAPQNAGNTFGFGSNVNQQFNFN
UniProt Q06142: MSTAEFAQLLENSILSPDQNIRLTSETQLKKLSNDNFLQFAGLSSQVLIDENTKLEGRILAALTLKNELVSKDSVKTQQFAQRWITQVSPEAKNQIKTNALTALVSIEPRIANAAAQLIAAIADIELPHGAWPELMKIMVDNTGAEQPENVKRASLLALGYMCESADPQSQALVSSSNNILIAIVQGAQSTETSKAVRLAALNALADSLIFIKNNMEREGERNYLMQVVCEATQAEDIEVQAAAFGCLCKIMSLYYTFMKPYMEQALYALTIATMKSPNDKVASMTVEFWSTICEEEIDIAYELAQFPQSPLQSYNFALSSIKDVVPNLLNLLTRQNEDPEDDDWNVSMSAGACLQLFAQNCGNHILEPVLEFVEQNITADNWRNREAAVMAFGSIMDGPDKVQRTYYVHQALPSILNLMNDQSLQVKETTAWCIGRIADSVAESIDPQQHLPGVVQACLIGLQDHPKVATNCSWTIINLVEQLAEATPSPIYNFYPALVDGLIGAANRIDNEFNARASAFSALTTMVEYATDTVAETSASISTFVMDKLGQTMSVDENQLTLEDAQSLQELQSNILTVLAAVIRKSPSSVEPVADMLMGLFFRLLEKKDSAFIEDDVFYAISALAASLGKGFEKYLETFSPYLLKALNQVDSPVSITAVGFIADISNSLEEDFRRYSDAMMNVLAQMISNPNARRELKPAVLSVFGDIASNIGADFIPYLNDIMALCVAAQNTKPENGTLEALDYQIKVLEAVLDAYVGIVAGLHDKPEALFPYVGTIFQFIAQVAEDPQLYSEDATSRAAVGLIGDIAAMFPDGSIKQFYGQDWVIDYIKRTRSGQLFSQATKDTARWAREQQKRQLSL

For experiment [2], the target named is GST-Srp1 (S. cerevisiae) (UniProt Q02821). The experiment can be described thus: co-purification; Sts1-6His and GST-Srp1 co-expressed in E. coli; clarified extract combined with E. coli extract containing untagged Kap95; full complex purified by 6His-tag binding to TALON resin.
Experiment [3] addresses T2, Sts1-6His (S. cerevisiae) (UniProt P38637).
T2 sequence: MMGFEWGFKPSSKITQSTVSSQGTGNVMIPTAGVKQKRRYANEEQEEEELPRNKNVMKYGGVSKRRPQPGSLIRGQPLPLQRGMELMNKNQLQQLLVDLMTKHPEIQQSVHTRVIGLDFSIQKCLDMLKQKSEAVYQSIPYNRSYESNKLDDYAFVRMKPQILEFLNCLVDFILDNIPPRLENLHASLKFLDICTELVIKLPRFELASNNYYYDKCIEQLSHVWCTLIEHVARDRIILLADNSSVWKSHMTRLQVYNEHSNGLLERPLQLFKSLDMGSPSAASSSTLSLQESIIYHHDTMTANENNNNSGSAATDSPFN
The description is as above.

In experiment [4] the target is GST-Srp1 (S. cerevisiae) (UniProt Q02821). The experiment can be described thus: pull-down; complex of Sts1(1–116)-6His with GST-Srp1 as used for the proteasome pull-down (Fig. S1A, B); how it was formed is not told.

Results are given in words; binding and its absence hold for the method and conditions named. For some assays here: In cells and extracts the contact can be indirect. Some entries that bind do so weakly or less than the wild type. For some assays here: Sequences can lack the tags named with a protein.

On to “GST-cleaved Kap95 (from UniProt Q06142 1-861)”, for which, in experiment [1], the binding result is “no binding”.

As for “untagged Kap95 (in E. coli cell extract) (from UniProt Q06142 1-861)”, the binding result (with GST-Srp1 (S. cerevisiae) [2]; in experiment [3]) was “binds” in each case.

Regarding GST-Srp1 (from UniProt Q02821 1-542), the binding entry in experiment [3] was “binds”.

B1: Sts1(1–116)-6His (domain or fragment, UniProt P38637 1-116)
chain: MMGFEWGFKPSSKITQSTVSSQGTGNVMIPTAGVKQKRRYANEEQEEEELPRNKNVMKYGGVSKRRPQPGSLIRGQPLPLQRGMELMNKNQLQQLLVDLMTKHPEIQQSVHTRVIG
B1: in the experiment with GST-Srp1 (S. cerevisiae) [4], the binding entry is “binds”.

The values above are taken from publication PMC10808114, “Yeast 26S proteasome nuclear import is coupled to nucleus-specific degradation of the karyopherin adaptor protein Sts1” (Scientific Reports, 2024).
